Paper PMC12350791
No constants are given. Whether binding was seen depends on the method and setting. In cells and extracts the contact can be indirect. Some results given as binding are weak or reduced against the parent protein; the word gives no strength.

Protein sequences, listed by entry. Tags and fused reporters are not part of them.
UniProt Q13838: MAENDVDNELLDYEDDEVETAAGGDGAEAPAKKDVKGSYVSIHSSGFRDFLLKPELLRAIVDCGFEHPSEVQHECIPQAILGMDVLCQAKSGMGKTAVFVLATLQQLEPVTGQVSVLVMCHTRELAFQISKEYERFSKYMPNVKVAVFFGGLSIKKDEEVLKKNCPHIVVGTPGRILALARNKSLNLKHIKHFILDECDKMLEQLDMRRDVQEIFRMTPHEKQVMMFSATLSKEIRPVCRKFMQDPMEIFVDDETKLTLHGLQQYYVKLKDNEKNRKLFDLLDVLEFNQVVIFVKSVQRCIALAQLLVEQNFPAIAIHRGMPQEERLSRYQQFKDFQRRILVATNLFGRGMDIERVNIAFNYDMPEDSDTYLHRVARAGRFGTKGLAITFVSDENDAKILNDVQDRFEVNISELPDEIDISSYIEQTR

Target: T1, CHTOP (human (endogenous in K562)) (UniProt Q9Y3Y2)
T1 sequence: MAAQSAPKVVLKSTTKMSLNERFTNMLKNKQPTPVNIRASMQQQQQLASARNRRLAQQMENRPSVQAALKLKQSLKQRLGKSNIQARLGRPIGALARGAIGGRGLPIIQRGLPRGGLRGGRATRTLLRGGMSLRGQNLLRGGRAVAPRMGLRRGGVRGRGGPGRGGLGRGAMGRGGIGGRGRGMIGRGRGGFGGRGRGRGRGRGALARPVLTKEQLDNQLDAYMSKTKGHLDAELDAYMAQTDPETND
Assay: cross-linking; K562 nuclei (nuclear extracts) cross-linked with 2 mM Azide-A-DSBSO, 37 °C, 1 h, 20 mM HEPES pH 7.6, 150 mM NaCl, […] MgCl2; FASP digest, DBCO bead enrichment, SEC, LC-MS/MS; MS Annika, shotgun database of 5659 proteins, 1% FDR

binding: binds
Substance: DDX39B-dTag-GFP (from UniProt Q13838 1-428)
